Measured values reported in PMC6298966 (Scientific Reports, 2018).
Strings that start with PEPTIDE1 are HELM notation: dots part the residues, brackets hold end groups and non-standard residues.

Test: general procedure: Fmoc solid-phase peptide synthesis; Fmoc-Rink-Amide p-MBHA resin; TBTU/DIEA
Conditions: whole synthesis, scale of the general procedure 200 µmol; for final HPLC purity: 220 nm; for isolated yield: total yield

Substance	final HPLC purity [%]	isolated yield [%]
Cf-HAIYPRH-NH2	99	–
PEPTIDE1{H.A.I.Y.P.R.H.[am]}$$$$V2.0	97	19.9
H-VLRPPPVLRPPPVLRPPP-OH	98	21.1
Cf-(VLRPPP)3-OH	99	14.5
PEPTIDE1{H.A.[NMeI].[NMeY].P.R.[NMeH].[am]}$$$$V2.0	97	–
PEPTIDE1{[dH].[dR].[dP].[dY].[dI].[dA].[dH].[am]}$$$$V2.0	>99	–
PEPTIDE1{Y.T.I.W.M.P.E.N.P.R.P.G.T.P.C.D.I.F.T.N.S.R.G.K.R.A.S.N.G}$$$$V2.0	98	7.0
Cf-YTIWMPENPRPGTPCDIFTNSRGKRASNG-OH	>99	9.3
